Experimental data taken from US20150231240A1, “ANTI-C16ORF54 ANTIBODIES AND METHODS OF USE THEREOF” (priority 2012, published 2015).

B1: R29-8-57B: murine anti-C16orf54 monoclonal antibody; VH SEQ ID NO: 20, VL SEQ ID NO: 22 (antibody, V domains shown)
VH: MRVLILLWLFTAFPGILSDVQLQESGPGLVKPSQSLSLTCTVTGYSITSDYAWNWIRQFPGNKLEWMGYINYSGSTRYNPSLKSRISITRDTSKNHFFLQLNSVTPEDTATYHCARERYDGVYYGMDYWGQGTSVTVSS
VL: MDSQAQVLMSLLLWVSGTCGDIVMSQSPSSLAVSVGEKVTMSCKSSQSLLYSSNQKNYLAWYQQKPGQSPKLLIYWASTRESGVPDRFTGSGSGTDFTLTISSVKTEDLAVYYCQQYYSYRTFGGGTKLEIK
modifications: R29-8-57B heavy chain variable region; R29-8-57B light chain variable region
B2: R29-8-136C: murine anti-C16orf54 monoclonal antibody; VH SEQ ID NO: 16, VL SEQ ID NO: 18 (antibody, V domains shown)
VH: MRVLILLWLFTAFPGILSDVQLQESGPGLVKPSQSLSLTCTVTGYSITSDYAWNWIRQFPGNKLEWMGYINYSGSSRYNPSLKSRISITRDTSKNHFFLQLNSVTPEDTATYHCARERYDGVYYGMDYWGQGTSVTVSS
VL: MDSQAQVLMSLLLWVSGTCGDIVMSQSPSSLAVSVGEKVTMSCKSSQSLLYSSNQKNYLAWYQQKPGQSPKLLIYWASTRESGVPDRFTGSGSGTDFTLTISSVKTEDLAVYYCQQYYSYRTFGGGTKLEIK
modifications: R29-8-136C heavy chain variable region; R29-8-136C light chain variable region
B3: R29-7-1C: murine anti-C16orf54 monoclonal antibody, IgG2a; VH SEQ ID NO: 8, VL SEQ ID NO: 10 (antibody, V domains shown)
VH: MRVLILLWLFTAFPGILSDVQLQESGPGLVKPSQSLSLTCTVTGYSITSDYAWNWIRQFPGNKLEWMGYISYSGSIRYNPSLKSRISITRDTSKNQFFLQLNSVTTEDTATYYCAREKYDNYYYAMDYWGQGTSVTVSS
VL: MDSQAQVLMLLLLWVSGTCGDIVMSQSPSSLAVSVGEKVTLSCKSSQNLLYSTNQKNYLAWYQQKPGQSPKLLIYWASTRESGVPDRFTGSGSGTDFTLTISSVKAEDLAVYYCQQYYSYRTFGGGTKLEIK
modifications: R29-7-1C heavy chain variable region; R29-7-1C light chain variable region
B4: R29-67-7A: murine anti-C16orf54 monoclonal antibody, IgG2a; VH SEQ ID NO: 12, VL SEQ ID NO: 14 (antibody, V domains shown)
VH: MRVLILLWLFTAFPGILSDVQLQESGPGLVKPSQSLSLTCTVTGYSITSDYAWNWIRQFPGNKLEWMGYINYSGRTRYNPSLNSRISLTRDTSTNQFFLQLNSVTTEDTATYYCARENYDYEFYAMDYWGQGTSVTVSS
VL: MESQAQVLMLLLLWVSGTCGDIVMSQSPSSLAVSVGEKVTMSCKSSQNLLYSSNQKNYLAWYQQKPGQSPKLLIYWASTRESGVPDRFTGSGSGTDFTLTISSVKAEDLAVYYCQQYYIYRTFGGGTKLEIK
modifications: R29-67-7A heavy chain variable region; R29-67-7A light chain variable region
B5: R29-7-2A: murine anti-C16orf54 monoclonal antibody, IgG2b; VH SEQ ID NO: 4, VL SEQ ID NO: 6 (antibody, V domains shown)
VH: MLLGLKWVFFVVFYQGVPCEVQLVESGGGLIQPKGSLKLSCVASGFSFNTHAMNWVRQAPGKGLEWVARIRSKSNNYARYYADSVKDRFTISRDDSQSILYLQMNNLKTEDTAMYYCVKQGDGGFAYWGQGTLVTVSA
VL: MDSQAQVLMLLLLWVSGTCGDIVMSQSPSSLAVSVGEKVTMSCKSSQSLLYSSNQKNYLAWYQQRPGQSPKLLIYWASARESGVPDRFTGSGSGTDFTLTISSVKAEDLAVYYCQQYYSYPPTFGAGTKVELK
modifications: R29-7-2A heavy chain variable region; R29-7-2A light chain variable region

What follows are molecules tested on cyno C16orf54 (assay: Flow cytometry cross-reactivity with sarcoma cells expressing cyno C16orf54 (fold change over isotype)). Settings: 10 μg/ml antibody.
Type: binding, cynomolgous monkeys
Protocol: Anti-C16orf54 antibodies which bound to human C16orf54 were tested for their reactivity with human C16orf54 and their crossreactivity with C16orf54 from cynomolgous monkeys (cyno C16orf54) using flow cytometry. Sarcoma cells transfected with and expressing human C16orf54 or cyno C16orf54 were washed with PBS with 0.1% BSA, incubated with FcX receptor blocking solution (BioLegend) for 15 minutes, incubated with 10 μg/ml of anti-C16orf54 antibody for 1 hour at 4° C., washed twice with PBS with 0.1% BSA, incubated with 20 μg/ml of R-Phycoerythrin-AffiniPure F(ab′)2 Fragment Goat Anti-Mouse IgG, Fcγ Fragment Specific (Jackson ImmunoResearch) for 30 minutes at 4° C., washed twice with PBS with 0.1% BSA, incubated with the viability dye TO-PRO-3 iodide (Life Technologies), and immediately analyzed on a MACSQuant Analyzer instrument (Miltenyi). For each cell line and anti-C16orf54 antibody, a fold change was derived by dividing the median fluorescence intensity for Phycoerythrin in the live cell population for the anti-C16orf54 antibody by the median fluorescence intensity for Phycoerythrin in the live cell population for the IgG isotype control antibody.
B1 was tested, and the “binding to (crossreactivity with) cyno C16orf54 (flow cytometry)” value (from here on “binding”) was “bind (e.g., are crossreactive with) cyno C16orf54”. For B2, the “binding” value was “bind (e.g., are crossreactive with) cyno C16orf54”. In the case of B3, the “binding” value is reported as “bind (e.g., are crossreactive with) cyno C16orf54”. For B4, the “binding” value was “bind (e.g., are crossreactive with) cyno C16orf54”. With B5 the “binding” value was “bind (e.g., are crossreactive with) cyno C16orf54”.

Some entries repeat one wording, which the source may state once for all of them.
